Measured data: PubChem BioAssay AID1508597 (Cure First, 2020)
Test: 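Knock-downs altering ovarian cancer cell survival with or without PARP inhibitor rucaparib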 (primary screen). System: human ovarian carcinoma lines grown from tumours: OCI-P5x (papillary serous) and OCI-C5x (clear cell). Knock-down reagent: siRNA pool against human genes, 1.25 pmol siRNA per well. Timing: 72 h or 96 h, depending on the cell culture. Challenge: rucaparib 20 µM (about IC30) or vehicle, present until read-out. Rucaparib or vehicle: Rucaparib. Cell line: OCI-C5x (clear cell). Detection: 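Luminescent ATP-based viability assay read 72 or 96 h after transfection, depending on culture, given as normalised percent viability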. Scale: viability, normalised: higher = more viable cells remaining. Call rule: 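a well counts as a hit if its normalised viability is under 80 percent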. Calls: active = viability under 80%; inactive = viability 80% or more.
This is a random part of the about 2,100 reagents, in one setting of the screen. 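Calls flag viability under 80% in either arm, not effects specific to rucaparib; the reference for percent is not stated.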 Unmarked entries are inactive. Some reagents were tested in more than one well and are listed for each. Reagent sequences are not shown. The record does not give: the 100% reference.

MAP3K6 (GeneID 9064), technical replicate 1 → viability, normalised (%): 52.5 (active)
MAP3K6 (GeneID 9064), technical replicate 2 → viability, normalised (%): 75.4 (active)
MAP3K6 (GeneID 9064), technical replicate 3 → viability, normalised (%): 72.6 (active)
EPHB4 (GeneID 2050), technical replicate 1 → viability, normalised (%): 80
EPHB4 (GeneID 2050), technical replicate 2 → viability, normalised (%): 70.5 (active)
EPHB4 (GeneID 2050), technical replicate 3 → viability, normalised (%): 70.7 (active)
XRCC2 (GeneID 7516), technical replicate 1 → viability, normalised (%): 39 (active)
XRCC2 (GeneID 7516), technical replicate 2 → viability, normalised (%): 33.9 (active)
XRCC2 (GeneID 7516), technical replicate 3 → viability, normalised (%): 38.2 (active)
BORA (GeneID 79866), technical replicate 1 → viability, normalised (%): 50.8 (active)
BORA (GeneID 79866), technical replicate 2 → viability, normalised (%): 29.7 (active)
BORA (GeneID 79866), technical replicate 3 → viability, normalised (%): 45.6 (active)
NTRK2 (GeneID 4915), technical replicate 1 → viability, normalised (%): 63.9 (active)
NTRK2 (GeneID 4915), technical replicate 2 → viability, normalised (%): 74.9 (active)
NTRK2 (GeneID 4915), technical replicate 3 → viability, normalised (%): 61 (active)
GK2 (GeneID 2712), technical replicate 1 → viability, normalised (%): 46.9 (active)
GK2 (GeneID 2712), technical replicate 2 → viability, normalised (%): 44.8 (active)
GK2 (GeneID 2712), technical replicate 3 → viability, normalised (%): 34.2 (active)
RAD52 (GeneID 5893), technical replicate 1 → viability, normalised (%): 65.1 (active)
RAD52 (GeneID 5893), technical replicate 2 → viability, normalised (%): 57.6 (active)
RAD52 (GeneID 5893), technical replicate 3 → viability, normalised (%): 51.8 (active)
SRPK3 (GeneID 26576), technical replicate 1 → viability, normalised (%): 35.4 (active)
SRPK3 (GeneID 26576), technical replicate 2 → viability, normalised (%): 39.5 (active)
SRPK3 (GeneID 26576), technical replicate 3 → viability, normalised (%): 49.1 (active)
FANCM (GeneID 57697), technical replicate 1 → viability, normalised (%): 49.8 (active)
FANCM (GeneID 57697), technical replicate 1 → viability, normalised (%): 52.2 (active)
FANCM (GeneID 57697), technical replicate 2 → viability, normalised (%): 29.8 (active)
FANCM (GeneID 57697), technical replicate 2 → viability, normalised (%): 60.2 (active)
FANCM (GeneID 57697), technical replicate 3 → viability, normalised (%): 53.3 (active)
FANCM (GeneID 57697), technical replicate 3 → viability, normalised (%): 29.2 (active)
H1-4 (GeneID 3008), technical replicate 1 → viability, normalised (%): 57.4 (active)
H1-4 (GeneID 3008), technical replicate 2 → viability, normalised (%): 51.4 (active)
H1-4 (GeneID 3008), technical replicate 3 → viability, normalised (%): 65.3 (active)
DHX16 (GeneID 8449), technical replicate 1 → viability, normalised (%): 65.6 (active)
DHX16 (GeneID 8449), technical replicate 2 → viability, normalised (%): 68.5 (active)
DHX16 (GeneID 8449), technical replicate 3 → viability, normalised (%): 54.4 (active)
PDE2A (GeneID 5138), technical replicate 1 → viability, normalised (%): 64.2 (active)
PDE2A (GeneID 5138), technical replicate 2 → viability, normalised (%): 55 (active)
PDE2A (GeneID 5138), technical replicate 3 → viability, normalised (%): 43.8 (active)
TAF12 (GeneID 6883), technical replicate 1 → viability, normalised (%): 58.8 (active)
TAF12 (GeneID 6883), technical replicate 2 → viability, normalised (%): 33 (active)
TAF12 (GeneID 6883), technical replicate 3 → viability, normalised (%): 36.6 (active)
